Reference: patent US9505763B2, “Cancer treatment using BMP inhibitor” (Vanderbilt University, priority 2011, dated 2016)
At least one compound was matched to its structure with a doubt left.

Experiments:
[1] = test system: Id1 and Id3 protein; test: Western blot for Id1 and Id3; assay type: cell-based; settings: A549 and H1299 cells
Experimental: (§1) Western Blot Analysis. Total cellular protein was prepared using RIPA buffer containing a protease inhibitor cocktail and protein concentration was measured using the BCA assay as described. In brief, protein was analyzed by SDS-PAGE, transferred to nitrocellulose (Schleicher and Schuell, Keene, N.H.). After blocking, the blots were incubated overnight at 4° C. with the appropriate primary antibody in Tris-buffered saline with 1% Tween (TBST) and 5% non-fat milk. Secondary antibodies were applied for 1 hour at room temperature. Specific proteins were detected using the enhanced chemiluminescence system (Amersham, Arlington Heights, Ill.). The primary antibodies that were used were rabbit monoclonal anti-pSmad 1/5/8 (Cell signaling Technology, Danvers Mass.) rabbit anti-actin, an affinity isolated antigen specific antibody (Sigma, Saint Louis, Mo.), rabbit monoclonal anti-Id1 and rabbit monoclonal anti-Id3 (Calbioreagents, San Mateo, Calif.).

[2] = test system: phosphorylated Smad 1/5/8; test: Western blot for phosphorylated Smad 1/5/8; assay type: cell-based
Experimental: as §1

[3] = test system: Id1, Id2, and Id3 expression; test: Quantitative RT-PCR for Id family members; assay type: cell-based; settings: A549 and H1299 cell lines; 10 μM Dorsomorphin, 1 μM DMH1 or DMH2; 48 hours
Experimental: Quantification of Gene Expression. RNA was extracted using the RNeasy kit as per the manufacturer's instructions (Qiagen, Valencia, Calif.). DNAase was used to remove any DNA contamination. cDNA was generated using Advantage RT for PCR kit (BD BiosciencesClontech, Palo Alto, Calif.). Quantitative PCR was performed with the Stratagene Mx3005p (Agilent Technologies) and predesigned validated Taq-Man gene expression assays according to the manufacturer's specifications (Applied Biosystems, Foster City, Calif.). Reference numbers used are: GAPDH (Hs99999905_m1), ACVRL1 (alk1) (Hs00163543_m1), ACVR1A (alk2) (Hs00153836_m1), BMR1A (alk3) (Hs00831730_s1), BMPR1B (alk6) (Hs00176144_m1), Id1 (Hs00357821_g1), Id2 (Hs00747379_m1), and Id3 (Hs00171409-m1). Negative control included all reagents except cDNA. Expression was normalized to GAPDH using the formula […].

[4] = test system: H1299 tumors; test: H1299 subcutaneous tumors in mice; assay type: in vivo; settings: 40 μM injected around the tumor 3 times weekly, 3 weeks, vs DMSO
[5] = test system: Smad 1/5/8 activity; test: BRE-luciferase reporter assay; assay type: cell-based; settings: H1299 cells; 10 μM Dorsomorphin or 1 μM DMH1, DMH2, LDN; 48 hours; vs DMSO
Experimental: Luciferase Assays. 10^6 H1299 cells were transfected with 2 μg of BRE-luciferace plasmid using a Nucleofector II. […] Cells were lysed with luciferase lysis buffer (Promega). Samples were added to luciferase assay substrate (Promega) and luminsescence measured by the TD-20/20 Luminometer (Turner Designs/Turner BioSystems, Sunnyvale, Calif.). Control samples included luciferase assay substrate alone and luciferase assay substrate plus 1× reporter lysis buffer.

In the case of c1cc(-c2cnn3cc(-c4ccc(OCCN5CCCCC5)cc4)cnc23)ccn1 [Dorsomorphin, reference compound], the “protein levels of Id1 and Id3” value [1] is reported as “decrease”, the “phosphorylated Smad 1/5/8 expression” value ([2]; A549 cells) is reported as “decrease” and the “level of phosphorylated Smad 1/5/8 expression” value ([2]; lung cancer cell lines (H1299, A549)) is reported as “decreased”. The “Id1, Id2, and Id3 expression (mRNA)” value [3] was “significantly decreased”, the tumor size [4] was “tumor size is reduced” and the “Smad 1/5/8 activity (BRE-luciferase activity)” value [5] was “significant decrease”.
